Our source for the binding values is publication PMC10208570, “Peptidomimetic antibiotics disrupt the lipopolysaccharide transport bridge of drug-resistant Enterobacteriaceae” (Science Advances, 2023).

The target of this assay is mLptA (E. coli), LptA(25-185) E39V M47A R76A (E. coli (ATCC 25922)) (UniProt P0ADV1). The assay is described as follows: SEC-MALS; purified Lpt proteins and their mixtures (figs. S4 and S5); both purified.

Results are given in words; binding and its absence hold for the method and conditions named.

B1: mLptA (E. coli), LptA(25-185) E39V M47A R76A (domain or fragment, UniProt P0ADV1 25-185)
chain: GAFAVTGDTDQPIHIVSDQQSLDAQGNVVTFTGNVIVTQGTIKINADKVVVTAPGGEQGKEVIDGYGKPATFYQMQDNGKPVEGHASQMHYELAKDFVVLTGNAYLQQVDSNIKGDKITYLVKEQKMQAFSDKGKRVTTVLVPSQLQDKNNKGQTPAQKKGN
Regarding B1, the binding result is recorded as “no binding”.
